Taken from: PubChem BioAssay AID504784 (Drosophila RNAi Screening Center, 2011)
Purpose: 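Search for regulators of lipid droplet storage in oleate-fed fly cells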 (primary screen). Cells: Drosophila Kc167 embryonic cells. Knock-down reagent: long dsRNA against Drosophila genes, about 250 ng dsRNA per well. Timing: 4 days. Treatment: cells fed 400 µM oleic acid bound to BSA. Measurement: 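Microscope images give a droplet-to-nucleus area ratio, taken as log and converted to a screen-wide B-score; higher values mean greater lipid storage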. Reading the numbers: droplet/nuclear area B-score: higher = more stored lipid (overstorage).
The screen tested about 17,000 reagents; this is a random part of those with a known target gene and a result. 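Each column is one replicate's B-score; the combined score over replicates was not deposited, so single values may mislead.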 The numbers tell different reagents against one gene apart.

Knock-down of frm resulted in: droplet/nuclear area B-score, replicate 1 = 0.253; droplet/nuclear area B-score, replicate 2 = -0.997; droplet/nuclear area B-score, replicate 3 = -0.012.
For Prosalpha4 the deposit lists droplet/nuclear area B-score, replicate 1 = -0.429; droplet/nuclear area B-score, replicate 2 = 0.687.
kug showed droplet/nuclear area B-score, replicate 1 = 0.557; droplet/nuclear area B-score, replicate 2 = 0.393; droplet/nuclear area B-score, replicate 3 = 0.0229.
For Recs1 the deposit lists droplet/nuclear area B-score, replicate 1 = 0.636; droplet/nuclear area B-score, replicate 2 = -0.926.
After knock-down of CG12325, the screen gave droplet/nuclear area B-score, replicate 1 = -1.07; droplet/nuclear area B-score, replicate 2 = -0.0696.
Ilp2 gave droplet/nuclear area B-score, replicate 1 = -0.314; droplet/nuclear area B-score, replicate 2 = 0.471.
With knock-down of CG7810 the results were droplet/nuclear area B-score, replicate 1 = -2.63; droplet/nuclear area B-score, replicate 2 = -0.0881.
With knock-down of pAbp, the record shows droplet/nuclear area B-score, replicate 1 = 2.3; droplet/nuclear area B-score, replicate 2 = 6.61.
Knock-down of ase came out at: droplet/nuclear area B-score, replicate 1 = 0.494; droplet/nuclear area B-score, replicate 2 = -1.9.
Depletion of BBS9 came out at: droplet/nuclear area B-score, replicate 1 = -0.381; droplet/nuclear area B-score, replicate 2 = 1.08.
Depletion of Or94a gave: droplet/nuclear area B-score, replicate 1 = 0.071; droplet/nuclear area B-score, replicate 2 = -0.556.
Knock-down of CG16743 resulted in: droplet/nuclear area B-score, replicate 1 = 0.741; droplet/nuclear area B-score, replicate 2 = -3.21.
CG9500 gave droplet/nuclear area B-score, replicate 1 = 0.00379; droplet/nuclear area B-score, replicate 2 = 0.905.
IscU showed droplet/nuclear area B-score, replicate 1 = 11.5; droplet/nuclear area B-score, replicate 2 = 8.97.
ChT scored droplet/nuclear area B-score, replicate 1 = 1.7; droplet/nuclear area B-score, replicate 2 = 2.21.
Silencing of CG14926 resulted in: droplet/nuclear area B-score, replicate 1 = -2.67; droplet/nuclear area B-score, replicate 2 = -2.37.
For Surf6 the deposit lists droplet/nuclear area B-score, replicate 1 = 0.513; droplet/nuclear area B-score, replicate 2 = -3.61.
PCNA scored droplet/nuclear area B-score, replicate 1 = 5.04; droplet/nuclear area B-score, replicate 2 = -3.54.
Knock-down of CG18281 resulted in: droplet/nuclear area B-score, replicate 1 = -0.00622; droplet/nuclear area B-score, replicate 2 = 1.3; droplet/nuclear area B-score, replicate 3 = 0.707.

7 entries from above, arranged by “droplet/nuclear area B-score, replicate 1”, descending:
Recs1 → droplet/nuclear area B-score, replicate 1: 0.636; droplet/nuclear area B-score, replicate 2: -0.926
kug → droplet/nuclear area B-score, replicate 1: 0.557; droplet/nuclear area B-score, replicate 2: 0.393; droplet/nuclear area B-score, replicate 3: 0.0229
frm → droplet/nuclear area B-score, replicate 1: 0.253; droplet/nuclear area B-score, replicate 2: -0.997; droplet/nuclear area B-score, replicate 3: -0.012
Ilp2 → droplet/nuclear area B-score, replicate 1: -0.314; droplet/nuclear area B-score, replicate 2: 0.471
Prosalpha4 → droplet/nuclear area B-score, replicate 1: -0.429; droplet/nuclear area B-score, replicate 2: 0.687
CG12325 → droplet/nuclear area B-score, replicate 1: -1.07; droplet/nuclear area B-score, replicate 2: -0.0696
CG7810 → droplet/nuclear area B-score, replicate 1: -2.63; droplet/nuclear area B-score, replicate 2: -0.0881

Next reagents:
For CG12104, the values are droplet/nuclear area B-score, replicate 1 = -0.332; droplet/nuclear area B-score, replicate 2 = -4.62.
Against CG14357, the entry reads droplet/nuclear area B-score, replicate 1 = -0.0341; droplet/nuclear area B-score, replicate 2 = 0.257.
Silencing of CG11777 gave: droplet/nuclear area B-score, replicate 1 = -1.25; droplet/nuclear area B-score, replicate 2 = 0.0166.
Against CG13171, the values are droplet/nuclear area B-score, replicate 1 = 0.122; droplet/nuclear area B-score, replicate 2 = -0.575.
Depletion of Kyat gave: droplet/nuclear area B-score, replicate 1 = 2.12; droplet/nuclear area B-score, replicate 2 = 4.43.
For CG7054 the deposit lists droplet/nuclear area B-score, replicate 1 = 0.33; droplet/nuclear area B-score, replicate 2 = 1.89.
Depletion of Vps16A resulted in: droplet/nuclear area B-score, replicate 1 = -1.71; droplet/nuclear area B-score, replicate 2 = -1.12.
For CG11345, the entry reads droplet/nuclear area B-score, replicate 1 = -3.08; droplet/nuclear area B-score, replicate 2 = -1.98.
Against Nbr, the values are droplet/nuclear area B-score, replicate 1 = 0.0482; droplet/nuclear area B-score, replicate 2 = -0.912.
Silencing of osk came out at: droplet/nuclear area B-score, replicate 1 = 0.0118; droplet/nuclear area B-score, replicate 2 = -1.05.
Silencing of MFS3 resulted in: droplet/nuclear area B-score, replicate 1 = 0.776; droplet/nuclear area B-score, replicate 2 = -0.905.
CG1986 scored droplet/nuclear area B-score, replicate 1 = -1.1; droplet/nuclear area B-score, replicate 2 = 0.894; droplet/nuclear area B-score, replicate 3 = 2.42.
For Tollo the deposit lists droplet/nuclear area B-score, replicate 1 = -1.83; droplet/nuclear area B-score, replicate 2 = -1.13.
With knock-down of fng #1, the screen gave droplet/nuclear area B-score, replicate 1 = -0.588; droplet/nuclear area B-score, replicate 2 = -0.245; droplet/nuclear area B-score, replicate 3 = 0.814.
fng #2 scored droplet/nuclear area B-score, replicate 1 = 1.35; droplet/nuclear area B-score, replicate 2 = -0.796; droplet/nuclear area B-score, replicate 3 = 1.9.
Knock-down of fng #3 gave: droplet/nuclear area B-score, replicate 1 = -0.0256; droplet/nuclear area B-score, replicate 2 = 0.31.
With knock-down of CG1324, the record shows droplet/nuclear area B-score, replicate 1 = 0.00892; droplet/nuclear area B-score, replicate 2 = -0.0393.
For fws, the entry reads droplet/nuclear area B-score, replicate 1 = -0.145; droplet/nuclear area B-score, replicate 2 = 0.406.
CG34370 #1 gave droplet/nuclear area B-score, replicate 1 = 0.674; droplet/nuclear area B-score, replicate 2 = -0.126.
Depletion of CG34370 #2 came out at: droplet/nuclear area B-score, replicate 1 = -2.36; droplet/nuclear area B-score, replicate 2 = 1.85.
With knock-down of CG34370 #3 the results were droplet/nuclear area B-score, replicate 1 = -0.706; droplet/nuclear area B-score, replicate 2 = -0.397.
With knock-down of CG34370 #4 the results were droplet/nuclear area B-score, replicate 1 = -0.843; droplet/nuclear area B-score, replicate 2 = -1.28.
After knock-down of CG11068 the results were droplet/nuclear area B-score, replicate 1 = 1.81; droplet/nuclear area B-score, replicate 2 = 0.559.
Knock-down of CG12024 resulted in: droplet/nuclear area B-score, replicate 1 = -0.651; droplet/nuclear area B-score, replicate 2 = 1.78.
TP53INP #1 gave droplet/nuclear area B-score, replicate 1 = -0.888; droplet/nuclear area B-score, replicate 2 = 0.0807; droplet/nuclear area B-score, replicate 3 = 0.257.
TP53INP #2 gave droplet/nuclear area B-score, replicate 1 = 0.00952; droplet/nuclear area B-score, replicate 2 = -0.0495.
Silencing of sol gave: droplet/nuclear area B-score, replicate 1 = 0.83; droplet/nuclear area B-score, replicate 2 = 0.289.
For CG1271, the values are droplet/nuclear area B-score, replicate 1 = 0.568; droplet/nuclear area B-score, replicate 2 = 0.369.
Silencing of eIF4E7 #1 gave: droplet/nuclear area B-score, replicate 1 = -1.64; droplet/nuclear area B-score, replicate 2 = -2.18.
eIF4E7 #2 showed droplet/nuclear area B-score, replicate 1 = 1.3; droplet/nuclear area B-score, replicate 2 = -1.48.
For CG4199 #1 the deposit lists droplet/nuclear area B-score, replicate 2 = -1.36.
CG4199 #2 gave droplet/nuclear area B-score, replicate 1 = -0.0289; droplet/nuclear area B-score, replicate 2 = -0.231.
